Test results from patent US20100196395A1.
No constants are given. Whether binding was seen depends on the method and setting. Some results given as binding are weak or reduced against the parent protein; the word gives no strength.

Chains of the proteins cited; added tags and fusions are not shown. Residues count along the entry.
UniProt P05019, residues 49-118: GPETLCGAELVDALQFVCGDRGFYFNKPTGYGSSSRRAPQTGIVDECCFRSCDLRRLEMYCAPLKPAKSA

Biological target: biotinylated IGF-1 (UniProt P05019)
Test: competition ELISA: antibody blocks binding of biotinylated IGF-1 to coated IGF-1R, fluorescence readout

| binding | Binder |
| --- | --- |
| binds | antibody 40186 (antibody, human IgG1, lambda, V domains shown) VH: QVELVESGGGLVQPGGSLRLSCAASGFTFSNYWMHWVRQAPGKGLEWVSGISGWSSWTYYADSVKGRFTISRDNSKNTLYLQMNSLRAEDTAVYYCARFGIDAYTKVYFDYWGQGTLVTVSS VL: DIELTQPPSVSVAPGQTARISCSGDNIPLKYVSWYQQKPGQAPVLVIHDDNKRPSGIPERFSGSNSGNTATLTISGTQAEDEADYYCQSWASTGVVFGGGTKLTVLG |
| binds | antibody 40183 (antibody, human IgG1, lambda, V domains shown) VH: QVELVESGGGLVQPGGSLRLSCAASGFTWSSFAMSWVRQAPGKGLEWVSYISYLGSYTGYADSVKGRFTISRDNSKNTLYLQMNSLRAEDTAVYYCARGTKFDYWGQGTLVTVSS VL: DIVLTQPPSVSGAPGQRVTISCTGSSSNIGTYDVHWYQQLPGTAPKLLIYSNSKRPSGVPDRFSGSKSGTSASLAITGLQSEDEADYYCSITRVFGGGTKLTVLG |
